In this experiment the test system is C. albicans. Kind of experiment: Broth microdilution assay of synergistic lethality with 4 μg/mL FLC (recovery on drug-free YPD). The experiment is classed as cell-based, Candida albicans. Conditions: concentration of the compound that is synergistically lethal with 4 μg/mL FLC. For orientation: In broth dilution the organism is exposed to a series of concentrations in liquid medium.

Turning to `CCCCc1oc2ccccc2c1C(=O)c1cc(I)c(OCCN(CC)CC)c(I)c1.Cl` [Amiodarone (hydrochloride)], the Synergistic lethal concentrations was 25 µM.
For `CC(C)c1c(C(=O)Nc2ccccc2)c(-c2ccccc2)c(-c2ccc(F)cc2)n1CC[C@@H](O)C[C@@H](O)CC(=O)[O-].CC(C)c1c(C(=O)Nc2ccccc2)c(-c2ccccc2)c(-c2ccc(F)cc2)n1CC[C@@H](O)C[C@@H](O)CC(=O)[O-].[Ca+2]` [Atorvastatin (hemicalcium salt)] the value was 12.5 µM.
The value for `CC(C)c1c(C(=O)Nc2ccccc2)c(-c2ccccc2)c(-c2ccc(F)cc2)n1CC[C@@H](O)C[C@@H](O)CC(=O)O` [Atorvastatin] was 25 µM; that for `CCCNCC(O)COc1ccccc1C(=O)CCc1ccccc1.Cl` (stereo not shown) [Propafenone (hydrochloride)] was 100 µM.

Source of the values: article PMC11200976, “Pitavastatin Calcium Confers Fungicidal Properties to Fluconazole by Inhibiting Ubiquinone Biosynthesis and Generating Reactive Oxygen Species” (Antioxidants, 2024).
